39 molecules from the supplement of paper PMC8256030 can be followed below.

Several values for one entry are separate records, joined by “and”; a condition that tells them apart may be missing. Identical values can stand only once. Counter-ions that a name gives are not always drawn. This is one part of the list. Single values are uncertain here, since repeats match poorly.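 HEK293T cells were given each compound shortly before transfection with a reporter in which red mCherry is followed by the SARS-CoV-2 frameshift element and then GFP in the −1 frame, so GFP appears only after frameshifting.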

For this experiment, the system named is HEK293T. The experiment can be described thus: percent viability (nuclei count) relative to control; higher = more viable cells. As to conditions: 10 µM; 24 h.
Consider `OC[C@H]1O[C@@H](n2cnc3c2N=CNC[C@H]3O)C[C@@H]1O` [pentostatin], for which the percent viability amounted to 107%. Regarding `CCC(=O)O[C@]1(C(=O)COC(C)=O)CC[C@H]2[C@@H]3C[C@H](C)C4=CC(=O)C=C[C@]4(C)[C@H]3[C@@H](O)C[C@@]21C` [methylprednisolone aceponate], the percent viability is 236%. For `O=C1NCN(c2ccccc2)C12CCN(CCCC(c1ccc(F)cc1)c1ccc(F)cc1)CC2` [fluspirilene], the percent viability came to 187%. Under `CC(=O)N[C@@H](CCC(N)=O)C(=O)O` stands 208%; under `CC1(C)S[C@@H]2[C@H](NC(=O)COc3ccccc3)C(=O)N2[C@H]1C(=O)O` [phenoxymethylpenicillin], 326%. In the case of `CCC[C@@H]1C[C@@H](C(=O)N[C@@H]([C@H]2O[C@H](SC)[C@H](O)[C@@H](O)[C@H]2O)[C@H](C)Cl)N(C)C1` [Clindamycin·HCl], the percent viability amounted to 98.7%. Turning to `C[C@]12CCC(=O)C=C1CC[C@@H]1[C@@H]2[C@@H](O)C[C@@]2(C)[C@H]1CC[C@]2(O)C(=O)COC(=O)CCC(=O)O`, the percent viability is 155%. Under `NCCc1cc[nH]n1` stands 121%; under `O=c1[nH]c2ccccc2c(=O)n1CCCN1CCN(c2ccccc2)CC1` [pelanserin], 174%; under `O=C(Oc1cccc2cccnc12)c1ccccc1` [benzoxiquine], 206%. As to `C[C@]12C=CC(=O)C=C1CC[C@H]1[C@@H]3C[C@@H](O)[C@](O)(C(=O)CO)[C@@]3(C)C[C@H](O)[C@@]12F` [triamcinolone], the percent viability is 226% and 220%. On to `Oc1nc(O)c2cn[nH]c2n1` [oxipurinol], for which the percent viability is 119%. Regarding `CC(=O)CC(c1ccccc1)c1c(O)c2ccccc2oc1=O` (centres undefined) [warfarin], the percent viability is 254%. Under `CNCC(O)c1ccc(O)c(O)c1` [L-(+)-Epinephrine tartrate] stands 269%; under `CC(C)NCC(O)COc1ccc(COCCOC(C)C)cc1` (centres undefined), 212%; under `OC[C@@H](O)[C@@H](O)[C@H](O)[C@H](O)CO` [Bronchitol], 340%. For `CC(C)C(N)C(=O)O` (centres undefined), the percent viability is 119%. Under `O=C(O)C1CCSCN1` (centres undefined) [omonasteine] stands 188%; under `CN(C)c1cc(NC(=O)CNC(C)(C)C)c(O)c2c1C[C@H]1C[C@H]3[C@H](N(C)C)C(=O)C(C(N)=O)=C(O)[C@@]3(O)C(=O)C1=C2O` [tigecycline], 246%; under `COc1ccc(Cl)cc1C(=O)NCCc1ccc(C(=O)O)cc1` [meglitinide], 157%. As to `CC(=O)c1ccc2c(c1)C(=O)C1(CC1)O2` [spizofurone], the percent viability is 168%. For `CC1(C)S[C@@H]2[C@H](N3C(=O)[C@@H](c4ccccc4)NC3(C)C)C(=O)N2[C@H]1C(=O)O`, the percent viability stood at 135%. Regarding `Nc1ccc2cc3ccc(N)cc3nc2c1`, the percent viability turned out to be 88.4%.

Take `C[C@H](CCC(=O)O)[C@H]1CC[C@H]2[C@@H]3C(=O)C[C@@H]4CC(=O)CC[C@]4(C)[C@H]3CC(=O)[C@]12C` [dehydrocholate sodium]: the percent viability amounted to 184%.

In the case of `COc1c(N2C[C@@H]3CCCN[C@@H]3C2)c(F)cc2c(=O)c(C(=O)O)cn(C3CC3)c12` [Moxifloxacin·HCl], the percent viability came to 239%. With `O=S(=O)(O)NC1CCCCC1`, the percent viability turned out to be 361%.

With `CCCN(CC)C(CC)C(=O)Nc1c(C)cccc1C` (centres undefined) [etidocaine], the percent viability is 92.3%. The same measure for `CC(O)CC(C)(C)O` (centres undefined): 160%; for `CCN(CC)CCOC(=O)C1(C2CCCCC2)CCCCC1` [dicycloverine]: 131%. The same measure for `C[C@@H](O)CCCCn1c(=O)c2c(ncn2C)n(C)c1=O` [lisofylline]: 208%; for `NC12CC3CC(CC(C3)C1)C2` [amantadine]: 116%. `C[C@H](Cn1cnc2c(N)ncnc21)OCP(=O)(O)O` [tenofovir]: the percent viability was determined as 151%.

For the molecule `CCC[C@H](N[C@@H](C)C(=O)N1[C@H](C(=O)O)C[C@@H]2CCCC[C@@H]21)C(=O)OCC`, the percent viability was 378%. The same measure for `CN(C)CCCSc1ccccc1NC(=O)/C=C/c1ccccc1` [Cinanserin]: 297%.

Consider `Nc1nc2c(ncn2COCCO)c(=O)[nH]1` [Acycloguanosine], for which the percent viability worked out at 279%. Regarding `CCN(CC)CCN1C(=O)c2c(c3c4cccc(Cl)c4n([C@@H]4O[C@H](CO)[C@@H](OC)[C@H](O)[C@H]4O)c3c3[nH]c4c(Cl)cccc4c23)C1=O` [becatecarin], the percent viability came to 8.61%.

Consider `Cc1nc2c([nH]1)c(=O)n(C)c(=O)n2Cc1ccco1` [furafylline], for which the percent viability turned out to be 209%.

As for `CC1(C)S[C@@H]2[C@H](NC(=O)[C@H](NC(=O)N3CCNC3=O)c3ccccc3)C(=O)N2[C@H]1C(=O)O` [azlocillin], the percent viability was 125%. Regarding `Cc1cccc(C)c1NC(=O)/N=C1\CCCN1C` [xilobam], the percent viability turned out to be 132%.
